# Shown are survivors of the treated group in tumour-free mice. Counts of survivors are from the toxicity check (mostly the fifth day) where no day follows; animals may have died later. Schedules are NCI's codes, read here as Q, the interval in days (D) or hours (H), X, the number of doses. Some entries hold several experiments; the results are listed from low to high.
# Test system: CD2F1 mice, nontumored, toxicity/survival
# Experiment: NCI In Vivo Anticancer Drug Screen. Data for tumor model Nontumored Animals (Toxicity Test) in CD2F1 (CDF1) mice
# [1] = dose: 0.03 mg/kg/injection, schedule: Q01DX009 (ip), vehicle: saline
# [2] = dose: 0.06 mg/kg/injection, schedule: Q01DX009 (ip), vehicle: saline
# [3] = dose: 0.13 mg/kg/injection, schedule: Q01DX009 (ip), vehicle: saline
# [4] = dose: 0.25 mg/kg/injection, schedule: Q01DX009 (ip), vehicle: saline
# [5] = dose: 0.5 mg/kg/injection, schedule: Q01DX009 (ip), vehicle: saline
smiles,measurement,setting,value
COc1cccc2c1C(=O)c1c(O)c3c(c(O)c1C2=O)C[C@@](O)(C(C)=O)C[C@@H]3OC1CC(N)C(O)C(C)O1 (some centres undefined),survivor count,"dose: 0.02 mg/kg/injection, schedule: Q01DX009 (ip), vehicle: saline",8 of 8
same,survivor count,[1],8 of 8
same,survivor count,[2],7 of 7 and 8 of 8
same,survivor count,[3],7 of 7 and 8 of 8
same,survivor count,[4],8 of 8
same,survivor count,[5],8 of 8
same,survivor count,"dose: 0.62 mg/kg/injection, schedule: Q01DX001 (ip), vehicle: saline",8 of 8
same,survivor count,"dose: 1.0 mg/kg/injection, schedule: Q01DX009 (ip), vehicle: saline",7 of 8 and 8 of 8
same,survivor count,"dose: 1.25 mg/kg/injection, schedule: Q01DX001 (ip), vehicle: saline",8 of 8
same,survivor count,"dose: 1.5 mg/kg/injection, schedule: Q01DX009 (ip), vehicle: saline",8 of 8
same,survivor count,"dose: 2.0 mg/kg/injection, schedule: Q01DX009 (ip), vehicle: saline","6 of 8, 7 of 8, 8 of 8"
same,survivor count,"dose: 2.5 mg/kg/injection, schedule: Q01DX001 (ip), vehicle: saline",8 of 8
same,survivor count,"dose: 3.1 mg/kg/injection, schedule: Q01DX001 (iv), vehicle: saline",8 of 8
same,survivor count,"dose: 4.0 mg/kg/injection, schedule: Q01DX009 (ip), vehicle: saline","2 of 8, 5 of 8, 6 of 8, 7 of 8, 8 of 8"
same,survivor count,"dose: 5.0 mg/kg/injection, schedule: Q01DX001 (ip), vehicle: saline",8 of 8
same,survivor count,"dose: 5.18 mg/kg/injection, schedule: Q01DX001 (iv), vehicle: saline",8 of 8
same,survivor count,"dose: 8.64 mg/kg/injection, schedule: Q01DX001 (iv), vehicle: saline",8 of 8
same,survivor count,"dose: 10.0 mg/kg/injection, schedule: Q01DX001 (ip), vehicle: saline",8 of 8
same,survivor count,"dose: 14.4 mg/kg/injection, schedule: Q01DX001 (iv), vehicle: saline",3 of 8 and 8 of 8
same,survivor count,"dose: 24.0 mg/kg/injection, schedule: Q01DX001 (iv), vehicle: saline","1 of 8, 6 of 8, 7 of 8, 8 of 8"
same,survivor count,"dose: 40.0 mg/kg/injection, schedule: Q01DX001 (iv), vehicle: saline",0 of 8 and 8 of 8
Oc1ccc2c3c1OC1C(O)C=CC4C(C2)NCCC341 (centres undefined),survivor count,"dose: 1.0 mg/kg/injection, schedule: Q01DX001 (ip), vehicle: other",2 of 2
same,survivor count,"dose: 10.0 mg/kg/injection, schedule: Q01DX001 (ip), vehicle: other",2 of 2
same,survivor count,"dose: 100.0 mg/kg/injection, schedule: Q01DX001 (ip), vehicle: other",2 of 2
O=NN(Cc1cnc2[nH]c(=O)[nH]c(=O)c2n1)c1ccc(C(=O)NC(CCC(=O)O)C(=O)O)cc1 (centres undefined),survivor count,"dose: 1.0 mg/kg/injection, schedule: Q01DX001 (ip), vehicle: water",2 of 2
same,survivor count,"dose: 10.0 mg/kg/injection, schedule: Q01DX001 (ip), vehicle: water",2 of 2
same,survivor count,"dose: 100.0 mg/kg/injection, schedule: Q01DX001 (ip), vehicle: water",2 of 2
[N-]=[N+]=CC(=O)CCC(N)C(=O)O (centres undefined),survivor count,[1],8 of 8
same,survivor count,"dose: 0.05 mg/kg/injection, schedule: Q01DX009 (ip), vehicle: saline","10 of 10, 4 of 4, 8 of 8"
same,survivor count,"dose: 0.05 mg/kg/injection, schedule: Q01DX009 (oral), vehicle: saline",8 of 8
same,survivor count,"dose: 0.05 mg/kg/injection, schedule: Q01DX009 (sc), vehicle: saline",8 of 8
same,survivor count,[2],4 of 4
same,survivor count,"dose: 0.1 mg/kg/injection, schedule: Q01DX009 (ip), vehicle: saline","10 of 10, 4 of 4, 8 of 8"
same,survivor count,"dose: 0.1 mg/kg/injection, schedule: Q01DX009 (oral), vehicle: saline",8 of 8
same,survivor count,"dose: 0.1 mg/kg/injection, schedule: Q01DX009 (sc), vehicle: saline",8 of 8
same,survivor count,[3],4 of 4
same,survivor count,"dose: 0.2 mg/kg/injection, schedule: Q01DX009 (ip), vehicle: saline","10 of 10, 4 of 4, 8 of 8"
same,survivor count,"dose: 0.2 mg/kg/injection, schedule: Q01DX009 (oral), vehicle: saline",8 of 8
same,survivor count,"dose: 0.2 mg/kg/injection, schedule: Q01DX009 (sc), vehicle: saline",8 of 8
same,survivor count,[4],4 of 4
same,survivor count,"dose: 0.4 mg/kg/injection, schedule: Q01DX009 (ip), vehicle: saline","10 of 10, 4 of 4, 8 of 8"
same,survivor count,"dose: 0.4 mg/kg/injection, schedule: Q01DX009 (oral), vehicle: saline",8 of 8
same,survivor count,"dose: 0.4 mg/kg/injection, schedule: Q01DX009 (sc), vehicle: saline",8 of 8
same,survivor count,"dose: 0.4 mg/kg/injection, schedule: Q03HX024 (ip), vehicle: saline",8 of 8
same,survivor count,[5],4 of 4
same,survivor count,"dose: 0.63 mg/kg/injection, schedule: Q04DX003 (ip), vehicle: saline",8 of 8
same,survivor count,"dose: 0.8 mg/kg/injection, schedule: Q01DX009 (oral), vehicle: saline",8 of 8
same,survivor count,"dose: 0.8 mg/kg/injection, schedule: Q01DX009 (sc), vehicle: saline",8 of 8
same,survivor count,"dose: 0.8 mg/kg/injection, schedule: Q03HX016 (ip), vehicle: saline",8 of 8
same,survivor count,"dose: 0.8 mg/kg/injection, schedule: Q03HX024 (ip), vehicle: saline",8 of 8
same,survivor count,"dose: 1.25 mg/kg/injection, schedule: Q04DX003 (ip), vehicle: saline",8 of 8
same,survivor count,"dose: 1.6 mg/kg/injection, schedule: Q03HX008 (ip), vehicle: saline",8 of 8
same,survivor count,"dose: 1.6 mg/kg/injection, schedule: Q03HX016 (ip), vehicle: saline",8 of 8
same,survivor count,"dose: 1.6 mg/kg/injection, schedule: Q03HX024 (ip), vehicle: saline",7 of 8
same,survivor count,"dose: 2.5 mg/kg/injection, schedule: Q04DX003 (ip), vehicle: saline",8 of 8
same,survivor count,"dose: 3.1 mg/kg/injection, schedule: Q03HX008 (ip), vehicle: saline",7 of 8
same,survivor count,"dose: 3.1 mg/kg/injection, schedule: Q03HX016 (ip), vehicle: saline",7 of 8
same,survivor count,"dose: 3.1 mg/kg/injection, schedule: Q03HX024 (ip), vehicle: saline",8 of 8
same,survivor count,"dose: 3.1 mg/kg/injection, schedule: Q04DX003 (ip), vehicle: saline",8 of 8
same,survivor count,"dose: 5.0 mg/kg/injection, schedule: Q04DX003 (ip), vehicle: saline",8 of 8
same,survivor count,"dose: 6.2 mg/kg/injection, schedule: Q03HX024 (ip), vehicle: saline",7 of 8
same,survivor count,"dose: 6.25 mg/kg/injection, schedule: Q03HX008 (ip), vehicle: saline",7 of 8
same,survivor count,"dose: 6.25 mg/kg/injection, schedule: Q03HX016 (ip), vehicle: saline",4 of 8
same,survivor count,"dose: 6.25 mg/kg/injection, schedule: Q04DX003 (ip), vehicle: saline",8 of 8
same,survivor count,"dose: 6.25 mg/kg/injection, schedule: Q08DX002 (ip), vehicle: saline",8 of 8
same,survivor count,"dose: 10.0 mg/kg/injection, schedule: Q04DX003 (ip), vehicle: saline",8 of 8
same,survivor count,"dose: 12.5 mg/kg/injection, schedule: Q01DX001 (ip), vehicle: saline",8 of 8
same,survivor count,"dose: 12.5 mg/kg/injection, schedule: Q01DX001 (sc), vehicle: saline",8 of 8
same,survivor count,"dose: 12.5 mg/kg/injection, schedule: Q03HX008 (ip), vehicle: saline",7 of 8
same,survivor count,"dose: 12.5 mg/kg/injection, schedule: Q03HX016 (ip), vehicle: saline",6 of 8
same,survivor count,"dose: 12.5 mg/kg/injection, schedule: Q04DX003 (ip), vehicle: saline",8 of 8
same,survivor count,"dose: 12.5 mg/kg/injection, schedule: Q08DX002 (ip), vehicle: saline",8 of 8
same,survivor count,"dose: 20.0 mg/kg/injection, schedule: Q04DX003 (ip), vehicle: saline",8 of 8
same,survivor count,"dose: 25.0 mg/kg/injection, schedule: Q01DX001 (ip), vehicle: saline",8 of 8
same,survivor count,"dose: 25.0 mg/kg/injection, schedule: Q01DX001 (oral), vehicle: saline",8 of 8
same,survivor count,"dose: 25.0 mg/kg/injection, schedule: Q01DX001 (sc), vehicle: saline",8 of 8
same,survivor count,"dose: 25.0 mg/kg/injection, schedule: Q03HX008 (ip), vehicle: saline",5 of 8
same,survivor count,"dose: 25.0 mg/kg/injection, schedule: Q04DX003 (ip), vehicle: saline",8 of 8
same,survivor count,"dose: 25.0 mg/kg/injection, schedule: Q08DX002 (ip), vehicle: saline",8 of 8
same,survivor count,"dose: 40.0 mg/kg/injection, schedule: Q04DX003 (ip), vehicle: saline",8 of 8
same,survivor count,"dose: 50.0 mg/kg/injection, schedule: Q01DX001 (ip), vehicle: saline",8 of 8
same,survivor count,"dose: 50.0 mg/kg/injection, schedule: Q01DX001 (oral), vehicle: saline",8 of 8
same,survivor count,"dose: 50.0 mg/kg/injection, schedule: Q01DX001 (sc), vehicle: saline",8 of 8
same,survivor count,"dose: 50.0 mg/kg/injection, schedule: Q04DX003 (ip), vehicle: saline",8 of 8
same,survivor count,"dose: 50.0 mg/kg/injection, schedule: Q08DX002 (ip), vehicle: saline",8 of 8
same,survivor count,"dose: 80.0 mg/kg/injection, schedule: Q04DX003 (ip), vehicle: saline",8 of 8
same,survivor count,"dose: 100.0 mg/kg/injection, schedule: Q01DX001 (ip), vehicle: saline",8 of 8
same,survivor count,"dose: 100.0 mg/kg/injection, schedule: Q01DX001 (oral), vehicle: saline",8 of 8
same,survivor count,"dose: 100.0 mg/kg/injection, schedule: Q01DX001 (sc), vehicle: saline",8 of 8
same,survivor count,"dose: 100.0 mg/kg/injection, schedule: Q08DX002 (ip), vehicle: saline",8 of 8
same,survivor count,"dose: 200.0 mg/kg/injection, schedule: Q01DX001 (ip), vehicle: saline",8 of 8
same,survivor count,"dose: 200.0 mg/kg/injection, schedule: Q01DX001 (oral), vehicle: saline",8 of 8
same,survivor count,"dose: 200.0 mg/kg/injection, schedule: Q01DX001 (sc), vehicle: saline",8 of 8
same,survivor count,"dose: 400.0 mg/kg/injection, schedule: Q01DX001 (oral), vehicle: saline",8 of 8

# Source: PubChem BioAssay AID188 (DTP/NCI, 2004)
